Measurements as given in paper PMC3283642.
Results are given in words; binding and its absence hold for the method and conditions named. In cells and extracts the contact can be indirect. Sequences can lack the tags named with a protein.

Molecular target: T1, MBP-Os01g (Os01g0286100 fused to maltose binding protein) (rice (Oryza sativa L. cv Nipponbare)) (UniProt Q0JNI9)
T1 sequence: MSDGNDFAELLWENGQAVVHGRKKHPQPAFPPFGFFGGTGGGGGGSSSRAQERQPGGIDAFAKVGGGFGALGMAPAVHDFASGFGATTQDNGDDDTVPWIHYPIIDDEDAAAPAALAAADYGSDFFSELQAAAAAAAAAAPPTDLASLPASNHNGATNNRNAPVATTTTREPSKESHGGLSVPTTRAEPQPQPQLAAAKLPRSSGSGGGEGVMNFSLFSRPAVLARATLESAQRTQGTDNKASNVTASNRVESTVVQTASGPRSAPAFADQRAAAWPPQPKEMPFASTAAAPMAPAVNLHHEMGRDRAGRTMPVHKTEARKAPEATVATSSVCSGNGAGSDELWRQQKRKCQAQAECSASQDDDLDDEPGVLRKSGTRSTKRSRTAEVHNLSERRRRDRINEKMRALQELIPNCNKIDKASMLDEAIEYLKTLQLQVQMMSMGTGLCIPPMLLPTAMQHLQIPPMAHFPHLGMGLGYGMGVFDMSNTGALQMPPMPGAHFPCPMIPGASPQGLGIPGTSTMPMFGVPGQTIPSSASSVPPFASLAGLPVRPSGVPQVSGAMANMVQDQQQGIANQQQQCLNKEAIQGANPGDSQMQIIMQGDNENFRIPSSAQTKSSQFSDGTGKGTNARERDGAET
Assay: pull-down; amylose resin-bound MBP fusion incubated with an equal amount of GST fusion; binding buffer 20 mM Tris-HCl pH 7.5, 100 mM NaCl, 1 mM EDTA, 1 mM DTT, 0.2% 2-mercaptoethanol, protease inhibitor; 4°C, 2 hours; five washes with 300 mM NaCl, 0.05% Tween-20; immunoblot with anti-GST

B1: GST-PGL1 (POSITIVE REGULATOR OF GRAIN LENGTH 1 fused to glutathione S-transferase) (protein, UniProt Q0DUR2 1-92)
chain: MSSRRSRSRQSGSSRITDEQISDLVSKLQDLLPEARLRSNDRVPSSRVLQETCNYIRSLHQEVDDLSERLSELLATSDMSSAQAAIIRSLLM
B1 was tested, and the binding was “no binding”.
